Experimental data as given in patent publication US20150259408A1.
Results are given in words; binding and its absence hold for the method and conditions named. Some binding calls cover weakened binding; strength is not graded here.

Sequences of proteins named here, by UniProt entry; tags and fusion partners are left off. A change or cut given only in a name is not applied to a line headed by its entry.
UniProt Q16363: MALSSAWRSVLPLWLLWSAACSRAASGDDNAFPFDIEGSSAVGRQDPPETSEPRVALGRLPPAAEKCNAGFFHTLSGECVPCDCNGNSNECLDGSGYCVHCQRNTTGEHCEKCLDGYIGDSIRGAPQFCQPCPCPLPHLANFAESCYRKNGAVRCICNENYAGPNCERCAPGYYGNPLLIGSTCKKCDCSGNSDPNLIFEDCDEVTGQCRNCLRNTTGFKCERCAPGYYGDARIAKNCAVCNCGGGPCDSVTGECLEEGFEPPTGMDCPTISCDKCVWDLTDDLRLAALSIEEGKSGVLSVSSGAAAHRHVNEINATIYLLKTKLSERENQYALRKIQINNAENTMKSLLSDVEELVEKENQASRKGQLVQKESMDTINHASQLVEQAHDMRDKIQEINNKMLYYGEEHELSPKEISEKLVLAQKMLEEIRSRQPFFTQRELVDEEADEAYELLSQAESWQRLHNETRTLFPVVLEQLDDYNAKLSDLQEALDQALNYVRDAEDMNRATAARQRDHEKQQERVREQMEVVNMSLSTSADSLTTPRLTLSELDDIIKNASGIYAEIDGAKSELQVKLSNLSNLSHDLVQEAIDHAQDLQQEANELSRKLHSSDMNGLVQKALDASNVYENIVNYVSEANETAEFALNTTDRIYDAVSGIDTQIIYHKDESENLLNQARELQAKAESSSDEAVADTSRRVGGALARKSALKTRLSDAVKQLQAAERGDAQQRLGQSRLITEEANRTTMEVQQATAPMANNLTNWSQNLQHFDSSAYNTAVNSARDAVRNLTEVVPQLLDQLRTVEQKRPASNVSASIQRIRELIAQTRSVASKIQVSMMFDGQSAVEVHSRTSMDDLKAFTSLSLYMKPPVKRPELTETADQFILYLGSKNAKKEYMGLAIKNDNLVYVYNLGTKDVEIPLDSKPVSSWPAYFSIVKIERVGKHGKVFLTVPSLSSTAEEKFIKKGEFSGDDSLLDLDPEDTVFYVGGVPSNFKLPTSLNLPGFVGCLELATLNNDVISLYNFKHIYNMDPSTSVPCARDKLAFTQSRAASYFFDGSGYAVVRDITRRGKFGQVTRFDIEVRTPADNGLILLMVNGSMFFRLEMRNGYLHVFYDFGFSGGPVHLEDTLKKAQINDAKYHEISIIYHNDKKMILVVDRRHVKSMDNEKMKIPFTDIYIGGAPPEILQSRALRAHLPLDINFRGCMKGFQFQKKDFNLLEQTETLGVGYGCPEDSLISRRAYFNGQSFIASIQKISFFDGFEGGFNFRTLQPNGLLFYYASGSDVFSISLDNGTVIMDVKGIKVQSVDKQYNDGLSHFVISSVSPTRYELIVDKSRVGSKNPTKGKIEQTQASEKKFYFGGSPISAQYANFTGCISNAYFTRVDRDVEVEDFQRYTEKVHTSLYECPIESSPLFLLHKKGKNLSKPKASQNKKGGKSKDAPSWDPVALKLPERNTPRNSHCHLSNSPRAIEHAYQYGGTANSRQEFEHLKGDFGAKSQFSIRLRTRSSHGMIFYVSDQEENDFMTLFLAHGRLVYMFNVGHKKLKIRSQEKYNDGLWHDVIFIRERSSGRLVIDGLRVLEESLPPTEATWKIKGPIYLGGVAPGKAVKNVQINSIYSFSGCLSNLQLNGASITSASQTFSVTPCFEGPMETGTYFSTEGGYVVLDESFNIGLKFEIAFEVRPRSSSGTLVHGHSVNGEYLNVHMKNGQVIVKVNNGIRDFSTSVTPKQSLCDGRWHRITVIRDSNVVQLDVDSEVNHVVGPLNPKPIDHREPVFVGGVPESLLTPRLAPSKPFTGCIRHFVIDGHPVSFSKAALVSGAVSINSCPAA

How the values were obtained:
[1] = molecular target: human LAMA4 G domain LG1-5 displayed on 293 cells (pDisplay) (human) (UniProt Q16363); test: flow cytometry on LAMA4-fragment-displaying 293 cells
[2] = molecular target: human LAMA4 LG4-5 fragment displayed on 293 cells (pDisplay) (human) (UniProt Q16363); test: as above
[3] = molecular target: human LAMA4 G domain LG1-5 displayed on 293 cells (pDisplay) (human) (UniProt Q16363); test: flow cytometry on LAMA4-displaying 293 cells, binding antibody 13G10 in the presence of blocking antibodies (6C12, 13G10, 15F7, mouse IgG1)
[4] = molecular target: human LAMA4 G domain LG1-5 displayed on 293 cells (pDisplay) (human) (UniProt Q16363); test: flow cytometry, serial dilution on LAMA4-displaying 293 cells
[5] = molecular target: human LAMA4 G domain LG1-5 displayed on 293 cells (pDisplay) (human) (UniProt Q16363); test: flow cytometry on 293 cells displaying LAMA4 fragments (pDisplay)
[6] = molecular target: human LAMA4 LG4-5 fragment displayed on 293 cells (pDisplay) (human) (UniProt Q16363); test: as above

- binding [1]: binds
- binding [2]: binds
- binding [3]: binds
- binding [4]: binds
- binding [5]: binds
- binding [6]: binds
B1: mouse monoclonal antibody 13G10 (antibody, V domains shown)
VH: QVQLQQSGAELARPGASVKLSCKASGYTFTNYGISWVKQRTGQGLEWIGAIYPRSGNTYYNEKFKGKATLTADKSSSTAYMELRSLTSEDSAVYFCARERDYGSSYALDYWGQGTSVTVSS
VL: DIQMTQSSSSFSVSLGDRVTITCKASEDIYNRLAWYQQKPGNAPRLLISGATSLETGVPSRFTGSGSGKDYTLSITSLQTEDVATYYCQQYWSPPRTFGGGTKLEIKR
